Data as given in PubChem BioAssay AID1159596 (NIAID, 2016)

Assay: 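Knock-down of 126 toll-like receptor signalling parts, six siRNAs each, on a TNF reporter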 (primary screen)
System: human THP1 B5 monocytic reporter cells made macrophage-like with PMA
Knock-down reagent: single siRNA against human genes
Duration: assayed 48 to 72 hours after siRNA transfection; peptidoglycan stimulation lasted 4 hours
Treatment: Staphylococcus aureus peptidoglycan for 4 hours; dose not given
Measurement: 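TNF-alpha promoter firefly/renilla luciferase ratio after 4 h s. aureus peptidoglycan; plate median/MAD scaled, robust z versus negative control wells, mean of replicates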
Scale: TNF reporter z-score: higher = stronger TNF promoter reporter response to peptidoglycan
Call rule: In these data the active calls have TNF reporter z-score, replicate mean at about -1.5 or lower, or at about 1.5 or higher
Meaning of the calls: active = reporter shifted beyond cut (either direction); inactive = reporter near control level
The deposit covers 756 reagents; this is a random part of them. Of all reagents, 143 (19%) got an active call. 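Active means the reporter moved past about ±1.5 in either direction; scores are per single siRNA, not per gene; peptidoglycan dose not given.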 The record does not give: the amount of reagent.

target,PubChem SID,"TNF reporter z-score, replicate mean",Outcome
IL12B,SID303071074,-1.22,inactive
IL12B,SID303071075,-0.875,inactive
IL12B,SID303071076,-0.742,inactive
IL12B,SID303071077,-1.15,inactive
IL12B,SID303071078,-1.37,inactive
IL12B,SID303071079,-0.799,inactive
DAB2IP,SID303071170,-1,inactive
DAB2IP,SID303071171,-1.18,inactive
DAB2IP,SID303071172,1.13,inactive
DAB2IP,SID303071173,-1.96,active
DAB2IP,SID303071174,-0.843,inactive
DAB2IP,SID303071175,-0.563,inactive
MAPKAPK2,SID303070738,-0.201,inactive
MAPKAPK2,SID303070739,0.612,inactive
MAPKAPK2,SID303070740,-0.072,inactive
MAPKAPK2,SID303070741,-0.677,inactive
MAPKAPK2,SID303070742,0.494,inactive
MAPKAPK2,SID303070743,-0.764,inactive
OTUD5,SID303070834,0.831,inactive
OTUD5,SID303070835,-1.75,active
OTUD5,SID303070836,-1.13,inactive
OTUD5,SID303070837,1.43,inactive
OTUD5,SID303070838,-0.701,inactive
OTUD5,SID303070839,-1.61,active
NFKBIB,SID303070636,-1.29,inactive
NFKBIB,SID303070637,-0.399,inactive
NFKBIB,SID303070638,-0.334,inactive
NFKBIB,SID303070639,-0.861,inactive
NFKBIB,SID303070640,0.104,inactive
NFKBIB,SID303070641,-0.187,inactive
PIK3CD,SID303070900,-1.61,active
PIK3CD,SID303070901,-0.318,inactive
PIK3CD,SID303070902,0.389,inactive
PIK3CD,SID303070903,-1.39,inactive
PIK3CD,SID303070904,0.967,inactive
PIK3CD,SID303070905,-0.0793,inactive
ELF4,SID303071044,-2.89,active
ELF4,SID303071045,-1.84,active
ELF4,SID303071046,-0.792,inactive
ELF4,SID303071047,-1.51,active
ELF4,SID303071048,-0.756,inactive
ELF4,SID303071049,-1.32,inactive
MAPK3,SID303070702,-1.1,inactive
MAPK3,SID303070703,-0.0961,inactive
MAPK3,SID303070704,-0.674,inactive
MAPK3,SID303070705,0.389,inactive
MAPK3,SID303070706,-0.413,inactive
MAPK3,SID303070707,-2.78,active
IRF7,SID303070948,-0.544,inactive
IRF7,SID303070949,-1.13,inactive
IRF7,SID303070950,-0.424,inactive
IRF7,SID303070951,-0.895,inactive
IRF7,SID303070952,-1.17,inactive
IRF7,SID303070953,-1.38,inactive

In a second layout: 18 of the entries above.
| target | PubChem SID | TNF reporter z-score, replicate mean | Outcome |
| --- | --- | --- | --- |
| NFKBIB | SID303070636 | -1.29 | inactive |
| NFKBIB | SID303070637 | -0.399 | inactive |
| NFKBIB | SID303070638 | -0.334 | inactive |
| NFKBIB | SID303070639 | -0.861 | inactive |
| NFKBIB | SID303070640 | 0.104 | inactive |
| NFKBIB | SID303070641 | -0.187 | inactive |
| PIK3CD | SID303070900 | -1.61 | active |
| PIK3CD | SID303070901 | -0.318 | inactive |
| PIK3CD | SID303070902 | 0.389 | inactive |
| PIK3CD | SID303070903 | -1.39 | inactive |
| PIK3CD | SID303070904 | 0.967 | inactive |
| PIK3CD | SID303070905 | -0.0793 | inactive |
| ELF4 | SID303071044 | -2.89 | active |
| ELF4 | SID303071045 | -1.84 | active |
| ELF4 | SID303071046 | -0.792 | inactive |
| ELF4 | SID303071047 | -1.51 | active |
| ELF4 | SID303071048 | -0.756 | inactive |
| ELF4 | SID303071049 | -1.32 | inactive |

Next records follow:
target,PubChem SID,"TNF reporter z-score, replicate mean",Outcome
TAB2,SID303070600,0.639,inactive
TAB2,SID303070601,-1.2,inactive
TAB2,SID303070602,-2.59,active
TAB2,SID303070603,-2.14,active
TAB2,SID303070604,-4.06,active
TAB2,SID303070605,-2.06,active
FOS,SID303070960,0.327,inactive
FOS,SID303070961,0.164,inactive
FOS,SID303070962,-0.431,inactive
FOS,SID303070963,0.00486,inactive
FOS,SID303070964,0.81,inactive
FOS,SID303070965,-0.0655,inactive
TRAF3,SID303070582,-1.06,inactive
TRAF3,SID303070583,-0.992,inactive
TRAF3,SID303070584,-0.658,inactive
TRAF3,SID303070585,-1.06,inactive
TRAF3,SID303070586,-1.41,inactive
TRAF3,SID303070587,0.507,inactive
MAP3K14,SID303070864,0.484,inactive
MAP3K14,SID303070865,1.68,active
MAP3K14,SID303070866,-1.21,inactive
MAP3K14,SID303070867,0.669,inactive
MAP3K14,SID303070868,1.29,inactive
MAP3K14,SID303070869,-1.16,inactive
RAC1,SID303070936,0.0108,inactive
RAC1,SID303070937,-0.765,inactive
RAC1,SID303070938,0.14,inactive
RAC1,SID303070939,-0.0718,inactive
RAC1,SID303070940,0.12,inactive
RAC1,SID303070941,-2.72,active
MAP3K1,SID303070684,-0.936,inactive
MAP3K1,SID303070685,-0.451,inactive
MAP3K1,SID303070686,0.252,inactive
MAP3K1,SID303070687,-3.35,active
MAP3K1,SID303070688,-0.289,inactive
MAP3K1,SID303070689,-0.898,inactive
IRF5,SID303070942,-3.76,active
IRF5,SID303070943,-0.63,inactive
IRF5,SID303070944,-1.54,active
IRF5,SID303070945,-0.298,inactive
IRF5,SID303070946,-1.42,inactive
IRF5,SID303070947,-1.1,inactive
MAP2K3,SID303070714,-0.697,inactive
MAP2K3,SID303070715,-1.19,inactive
MAP2K3,SID303070716,-1.46,inactive
MAP2K3,SID303070717,-2.72,active
MAP2K3,SID303070718,-0.158,inactive
MAP2K3,SID303070719,-3.59,active
CD180,SID303071116,0.113,inactive
CD180,SID303071117,0.235,inactive
CD180,SID303071118,-1.99,active
CD180,SID303071119,0.69,inactive
CD180,SID303071120,-0.0112,inactive
CD180,SID303071121,1.04,inactive
AKT1,SID303070870,-0.36,inactive
AKT1,SID303070871,0.988,inactive
AKT1,SID303070872,-1.26,inactive
AKT1,SID303070873,-0.626,inactive
AKT1,SID303070874,1.18,inactive
AKT1,SID303070875,-0.153,inactive
